Experimental findings from article PMC11919215 are described below.

Amino acid sequences for entries named in this document (tags omitted). Residues count along the entry.
UniProt P12111, residues 26-3177: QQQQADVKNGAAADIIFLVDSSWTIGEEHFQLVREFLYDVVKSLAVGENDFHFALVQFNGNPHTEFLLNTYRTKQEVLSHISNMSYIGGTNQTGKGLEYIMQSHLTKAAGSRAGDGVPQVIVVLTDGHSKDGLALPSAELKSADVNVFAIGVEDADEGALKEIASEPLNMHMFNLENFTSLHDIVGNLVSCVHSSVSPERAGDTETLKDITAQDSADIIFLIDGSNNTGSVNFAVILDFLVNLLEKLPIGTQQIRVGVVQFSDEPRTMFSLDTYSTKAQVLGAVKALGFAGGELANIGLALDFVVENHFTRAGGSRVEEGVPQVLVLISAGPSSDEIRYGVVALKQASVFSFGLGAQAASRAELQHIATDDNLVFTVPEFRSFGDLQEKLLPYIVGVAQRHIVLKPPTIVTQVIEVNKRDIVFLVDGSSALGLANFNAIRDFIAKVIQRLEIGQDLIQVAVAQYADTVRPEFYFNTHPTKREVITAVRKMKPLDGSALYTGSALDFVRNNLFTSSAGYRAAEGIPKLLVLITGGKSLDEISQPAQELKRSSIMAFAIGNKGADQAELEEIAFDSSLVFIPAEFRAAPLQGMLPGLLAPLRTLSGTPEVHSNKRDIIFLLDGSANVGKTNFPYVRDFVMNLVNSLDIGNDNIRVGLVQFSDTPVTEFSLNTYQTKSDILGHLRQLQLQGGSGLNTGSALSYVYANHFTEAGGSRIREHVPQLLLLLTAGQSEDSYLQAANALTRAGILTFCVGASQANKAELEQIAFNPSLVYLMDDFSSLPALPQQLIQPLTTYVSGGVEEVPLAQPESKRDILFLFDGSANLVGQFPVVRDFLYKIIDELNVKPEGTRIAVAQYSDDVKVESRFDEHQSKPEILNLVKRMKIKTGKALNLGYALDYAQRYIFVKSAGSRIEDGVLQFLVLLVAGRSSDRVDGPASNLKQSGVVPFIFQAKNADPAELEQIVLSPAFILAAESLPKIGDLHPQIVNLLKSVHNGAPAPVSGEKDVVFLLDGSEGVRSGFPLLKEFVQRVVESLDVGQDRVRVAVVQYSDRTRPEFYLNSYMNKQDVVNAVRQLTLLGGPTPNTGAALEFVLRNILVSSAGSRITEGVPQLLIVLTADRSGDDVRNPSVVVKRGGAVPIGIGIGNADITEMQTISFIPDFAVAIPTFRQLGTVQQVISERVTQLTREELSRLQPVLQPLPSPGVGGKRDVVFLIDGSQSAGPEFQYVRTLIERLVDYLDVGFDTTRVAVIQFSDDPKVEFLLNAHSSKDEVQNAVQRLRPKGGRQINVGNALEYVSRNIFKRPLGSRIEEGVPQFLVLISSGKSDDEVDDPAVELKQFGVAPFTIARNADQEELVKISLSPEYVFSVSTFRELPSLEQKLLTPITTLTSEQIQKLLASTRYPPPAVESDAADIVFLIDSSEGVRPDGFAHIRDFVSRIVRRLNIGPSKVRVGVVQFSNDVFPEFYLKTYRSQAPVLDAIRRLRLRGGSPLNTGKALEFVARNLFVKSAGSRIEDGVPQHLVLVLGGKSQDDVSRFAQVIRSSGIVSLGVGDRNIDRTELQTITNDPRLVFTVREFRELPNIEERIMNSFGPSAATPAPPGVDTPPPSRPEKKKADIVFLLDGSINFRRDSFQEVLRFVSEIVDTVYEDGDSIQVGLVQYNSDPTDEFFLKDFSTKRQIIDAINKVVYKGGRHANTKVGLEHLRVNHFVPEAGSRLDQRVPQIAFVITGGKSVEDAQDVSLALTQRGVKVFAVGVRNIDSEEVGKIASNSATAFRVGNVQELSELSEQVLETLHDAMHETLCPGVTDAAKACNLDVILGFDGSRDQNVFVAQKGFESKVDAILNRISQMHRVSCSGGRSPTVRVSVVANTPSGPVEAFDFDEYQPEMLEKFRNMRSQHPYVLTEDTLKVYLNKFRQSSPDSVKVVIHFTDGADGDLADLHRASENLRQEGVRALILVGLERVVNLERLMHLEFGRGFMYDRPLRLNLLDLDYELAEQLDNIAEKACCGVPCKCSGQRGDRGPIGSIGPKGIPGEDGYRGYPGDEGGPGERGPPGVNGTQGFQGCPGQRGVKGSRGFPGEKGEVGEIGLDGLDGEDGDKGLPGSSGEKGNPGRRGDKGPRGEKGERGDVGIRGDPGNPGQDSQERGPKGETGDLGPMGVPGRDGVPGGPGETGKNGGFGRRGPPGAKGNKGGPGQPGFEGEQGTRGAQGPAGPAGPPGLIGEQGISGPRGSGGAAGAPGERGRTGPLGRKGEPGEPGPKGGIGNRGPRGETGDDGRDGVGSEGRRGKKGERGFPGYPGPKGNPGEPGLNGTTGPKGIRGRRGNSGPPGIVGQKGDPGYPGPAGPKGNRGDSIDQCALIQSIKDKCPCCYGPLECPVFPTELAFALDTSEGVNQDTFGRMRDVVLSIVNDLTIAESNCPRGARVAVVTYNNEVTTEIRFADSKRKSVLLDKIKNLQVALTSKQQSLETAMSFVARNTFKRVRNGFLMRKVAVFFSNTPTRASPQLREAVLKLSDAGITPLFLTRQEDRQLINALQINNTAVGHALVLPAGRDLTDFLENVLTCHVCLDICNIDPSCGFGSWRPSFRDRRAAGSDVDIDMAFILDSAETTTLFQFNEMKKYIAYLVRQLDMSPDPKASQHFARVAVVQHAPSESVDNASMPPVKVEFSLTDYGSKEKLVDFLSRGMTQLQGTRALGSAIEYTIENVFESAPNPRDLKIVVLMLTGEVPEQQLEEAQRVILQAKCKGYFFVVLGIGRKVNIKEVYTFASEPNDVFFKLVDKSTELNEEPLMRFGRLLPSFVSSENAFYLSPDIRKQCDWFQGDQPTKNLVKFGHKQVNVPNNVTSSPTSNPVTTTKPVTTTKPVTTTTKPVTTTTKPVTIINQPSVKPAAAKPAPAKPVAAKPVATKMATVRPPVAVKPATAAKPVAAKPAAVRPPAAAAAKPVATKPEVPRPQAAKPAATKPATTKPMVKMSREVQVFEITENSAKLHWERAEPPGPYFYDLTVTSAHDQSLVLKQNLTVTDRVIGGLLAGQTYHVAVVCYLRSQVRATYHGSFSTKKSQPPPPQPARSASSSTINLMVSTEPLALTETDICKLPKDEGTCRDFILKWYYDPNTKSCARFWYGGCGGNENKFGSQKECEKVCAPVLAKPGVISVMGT
UniProt P12109, residues 20-1028: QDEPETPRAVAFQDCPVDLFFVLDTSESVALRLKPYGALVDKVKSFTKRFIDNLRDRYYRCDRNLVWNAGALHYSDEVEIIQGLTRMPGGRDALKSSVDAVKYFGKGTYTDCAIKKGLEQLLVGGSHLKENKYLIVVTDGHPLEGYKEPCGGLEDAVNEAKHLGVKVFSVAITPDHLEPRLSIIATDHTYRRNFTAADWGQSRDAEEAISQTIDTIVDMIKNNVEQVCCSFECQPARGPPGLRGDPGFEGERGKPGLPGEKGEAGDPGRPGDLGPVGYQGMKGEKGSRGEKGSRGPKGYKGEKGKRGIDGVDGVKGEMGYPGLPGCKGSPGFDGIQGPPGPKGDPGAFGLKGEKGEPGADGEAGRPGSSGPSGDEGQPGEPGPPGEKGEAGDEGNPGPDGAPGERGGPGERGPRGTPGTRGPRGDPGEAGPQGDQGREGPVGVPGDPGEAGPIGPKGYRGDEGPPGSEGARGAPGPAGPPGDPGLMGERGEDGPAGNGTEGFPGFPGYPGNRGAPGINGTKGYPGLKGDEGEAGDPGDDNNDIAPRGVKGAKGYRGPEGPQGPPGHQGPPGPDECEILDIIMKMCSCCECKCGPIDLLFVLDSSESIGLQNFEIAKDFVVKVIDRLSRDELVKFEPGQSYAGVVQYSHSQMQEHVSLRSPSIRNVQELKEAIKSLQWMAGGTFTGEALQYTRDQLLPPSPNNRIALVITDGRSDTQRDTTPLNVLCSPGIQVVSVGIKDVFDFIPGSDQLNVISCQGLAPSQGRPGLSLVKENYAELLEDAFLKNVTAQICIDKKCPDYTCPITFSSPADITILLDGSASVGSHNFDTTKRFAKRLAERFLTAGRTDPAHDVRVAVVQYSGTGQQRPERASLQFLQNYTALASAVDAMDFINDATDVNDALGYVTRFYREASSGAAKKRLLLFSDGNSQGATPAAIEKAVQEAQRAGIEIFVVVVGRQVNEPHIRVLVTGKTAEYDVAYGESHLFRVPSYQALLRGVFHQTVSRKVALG

In the experiment the target is collagen VI α3 chain, endogenous in WI-26 VA4 COL6A1 knockout cells (human (endogenous in WI-26 VA4)) (UniProt P12111). As to the kind of experiment: composite agarose/polyacrylamide gel electrophoresis with immunoblot; supernatants of WI-26 VA4 COL6A1 KO cells transfected with the wild-type or the mutant α1 chain; tetramers detected with the α3N antibody. In general terms: Immunoblotting shows a protein as a band on a membrane.

These are yes or no findings as the source states them, for the method shown. Some entries that bind do so weakly or less than the wild type.

Regarding “recombinant wild-type full-length collagen VI α1 chain with His8 tag, expressed in WI-26 VA4 COL6A1 knockout cells (from UniProt P12109 20-1028)”, the binding result is “binds”.
